Results published in paper PMC11288726.
Results are given in words; binding and its absence hold for the method and conditions named. A result given as binding can be weak or reduced; the word gives no strength. Where a sequence is shown, tags or fusion partners need not be part of it. Each block holds one binder with its values, some of them ahead of it.

Experiments:
Test in all cases: two-hybrid; yeast two-hybrid; bait from pDEST32 (GAL4 DNA-binding domain), prey from pDEST22 (GAL4 activation domain); growth on double and triple dropout media (-L -W -H) with different concentrations of 3-AT, dilution series
[1] = target: DIG-Like1 (DIL1), yeast two-hybrid fusion (Arabidopsis thaliana) (UniProt Q9FGW7)
[2] = target: AtSDR4L-CΔ6aa (AtSDR4L-C without the last 6 residues), yeast two-hybrid fusion (Arabidopsis thaliana)
[3] = target: C-terminal fragment of DIG1 (DIG1-C), yeast two-hybrid fusion (Arabidopsis thaliana)
[4] = target: DIG1-CΔ8aa (DIG1-C without the last 8 residues), yeast two-hybrid fusion (Arabidopsis thaliana)

binding [1]: no binding
B1: VIVIPAROUS1/ABI3-LIKE 1 (VAL1), yeast two-hybrid fusion (protein, UniProt Q8W4L5 1-790)
chain: MFEVKMGSKMCMNASCGTTSTVEWKKGWPLRSGLLADLCYRCGSAYESSLFCEQFHKDQSGWRECYLCSKRLHCGCIASKVTIELMDYGGVGCSTCACCHQLNLNTRGENPGVFSRLPMKTLADRQHVNGESGGRNEGDLFSQPLVMGGDKREEFMPHRGFGKLMSPESTTTGHRLDAAGEMHESSPLQPSLNMGLAVNPFSPSFATEAVEGMKHISPSQSNMVHCSASNILQKPSRPAISTPPVASKSAQARIGRPPVEGRGRGHLLPRYWPKYTDKEVQQISGNLNLNIVPLFEKTLSASDAGRIGRLVLPKACAEAYFPPISQSEGIPLKIQDVRGREWTFQFRYWPNNNSRMYVLEGVTPCIQSMMLQAGDTVTFSRVDPGGKLIMGSRKAANAGDMQGCGLTNGTSTEDTSSSGVTENPPSINGSSCISLIPKELNGMPENLNSETNGGRIGDDPTRVKEKKRTRTIGAKNKRLLLHSEESMELRLTWEEAQDLLRPSPSVKPTIVVIEEQEIEEYDEPPVFGKRTIVTTKPSGEQERWATCDDCSKWRRLPVDALLSFKWTCIDNVWDVSRCSCSAPEESLKELENVLKVGREHKKRRTGESQAAKSQQEPCGLDALASAAVLGDTIGEPEVATTTRHPRHRAGCSCIVCIQPPSGKGRHKPTCGCTVCSTVKRRFKTLMMRRKKKQLERDVTAAEDKKKKDMELAESDKSKEEKEVNTARIDLNSDPYNKEDVEAVAVEKEESRKRAIGQCSGVVAQDASDVLGVTELEGEGKNVREEPRVSS

binding [2]: binds | binding [3]: binds | binding [1]: binds | binding [4]: binds
B2: VIVIPAROUS1/ABI3-LIKE 2 (VAL2), full length, yeast two-hybrid fusion (protein, UniProt Q5CCK4 1-780)
chain: MESIKVCMNALCGAASTSGEWKKGWPMRSGDLASLCDKCGCAYEQSIFCEVFHAKESGWRECNSCDKRLHCGCIASRFMMELLENGGVTCISCAKKSGLISMNVSHESNGKDFPSFASAEHVGSVLERTNLKHLLHFQRIDPTHSSLQMKQEESLLPSSLDALRHKTERKELSAQPNLSISLGPTLMTSPFHDAAVDDRSKTNSIFQLAPRSRQLLPKPANSAPIAAGMEPSGSLVSQIHVARPPPEGRGKTQLLPRYWPRITDQELLQLSGQYPHLSNSKIIPLFEKVLSASDAGRIGRLVLPKACAEAYFPPISLPEGLPLKIQDIKGKEWVFQFRFWPNNNSRMYVLEGVTPCIQSMQLQAGDTVTFSRTEPEGKLVMGYRKATNSTATQMFKGSSEPNLNMFSNSLNPGCGDINWSKLEKSEDMAKDNLFLQSSLTSARKRVRNIGTKSKRLLIDSVDVLELKITWEEAQELLRPPQSTKPSIFTLENQDFEEYDEPPVFGKRTLFVSRQTGEQEQWVQCDACGKWRQLPVDILLPPKWSCSDNLLDPGRSSCSAPDELSPREQDTLVRQSKEFKRRRLASSNEKLNQSQDASALNSLGNAGITTTGEQGEITVAATTKHPRHRAGCSCIVCSQPPSGKGKHKPSCTCTVCEAVKRRFRTLMLRKRNKGEAGQASQQAQSQSECRDETEVESIPAVELAAGENIDLNSDPGASRVSMMRLLQAAAFPLEAYLKQKAISNTAGEQQSSDMVSTEHGSSSAAQETEKDTTNGAHDPVN
